# Results from PubChem BioAssay AID504467 (National Center for Advancing Translational Sciences (NCATS), 2011).
# The whole screen tested about 330,000 compounds, of which about 7,700 (2.3%) were called active. The inconclusive results got no clear call from the source; some entries with a clear call stand among them for comparison. The call rests on the fitted dose curve; in most records, active means well fitted inhibition curve with a large enough effect; inconclusive means small, poorly fitted or top-dose-only effect, or effect the other way; inactive means flat fitted curve, though single readings scatter. Potencies beside an inconclusive call are fits to weak or partial responses and may not hold up.
# Experiment: qHTS screen for small molecules that inhibit ELG1-dependent DNA repair in human embryonic kidney (HEK293T) cells expressing luciferase-tagged ELG1; further: nearly all actives have a fitted effect of over 55% in size
# Settings: HEK293T ELG1-luciferase reporter, luminescence, 16 h, DNA damage induced by 5-fluorouridine; series mostly up to 46.1 µM
# In short: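 DMSO vehicle served as the neutral condition. Each well held 2,000 cells given 5-fluorouridine plus compound; after 16 hr at 37 °C/5% CO2, ONE-Glo was added and luciferase measured 30 min later.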
# Potency means the concentration at half of the fitted maximal effect.
row,Structure (SMILES),Potency
1,CCc1ccc(NC(=O)c2cc(CC(C)C)on2)cc1,"inconclusive: 20.6 µM [activator, partial curve]"
2,COc1ccc(N/C=C2\C(=O)CCc3c2oc2cc(Cl)c(O)c(Cl)c32)cc1,inactive
3,COc1ccc(C(=O)OCC(=O)Nc2ncc([N+](=O)[O-])s2)cc1OC,"inconclusive: 17.8 µM [activator, single point]"
4,COc1ccccc1OCC(=O)N/N=C/c1cccc2cccnc12,inactive
5,CC(C)C(NS(=O)(=O)c1cccs1)C(=O)NCc1ccccc1Cl (stereo not drawn),inactive
6,Cc1noc(C)c1COc1ccc(C(=O)OCC(=O)NCCN2C(=O)CSC2=O)cc1,"inconclusive: 29.1 µM [activator, single point]"
7,Cc1ccc(S(=O)(=O)N2CCCCC2)cc1NC(=O)COC(=O)c1ccc(=O)[nH]c1,inactive
8,Cc1nnc(N2C(=O)C(O)=C(C(=O)c3ccco3)C2c2ccc(C(C)C)cc2)s1 (stereo not drawn),"inconclusive: 8.2 µM [activator, partial curve, poor fit]"
9,COc1ccc(-c2nnn(CC(=O)N3CCN(c4ccc(F)cc4)CC3)n2)cc1,inactive
10,Brc1ccc(-c2ccc(/C=N/Nc3nc(N4CCOCC4)nc(N4CCOCC4)n3)o2)cc1,active: 5.8 µM
11,CC(C)C(NS(=O)(=O)c1ccccc1)C(=O)NC1CCCC1 (stereo not drawn),inactive
12,COc1ccc(C(=O)c2nccc3cc(OC)c(OC)cc23)cc1OC,"inconclusive: 29.1 µM [inhibitor, single point]"
13,COc1ccc(CCNC(=O)Nc2cccc([N+](=O)[O-])c2)cc1,"inconclusive: 20.6 µM [inhibitor, single point]"
14,COc1ccc2nc(C)c3c(c2c1)OC(C(C)(Cl)Br)C3 (stereo not drawn),"inconclusive: 20.6 µM [inhibitor, single point]"
15,CCOCc1cn(CC(=O)c2ccc([N+](=O)[O-])cc2)c(C)nc1=N,inactive
16,O=S(=O)(/N=C(/c1ccccc1)N1CCOCC1)c1ccc(F)cc1,"inconclusive: 20.6 µM [activator, single point]"
17,CC(CCc1ccccc1)NC(=O)CN1CCSc2ccccc21 (stereo not drawn),inactive
18,COc1ccc(OC)c2sc(N3CCN(C(=O)c4ccc5ncsc5c4)CC3)nc12,"inconclusive: 25.9 µM [inhibitor, single point]"
19,CC1CN(S(=O)(=O)c2cccc(C(=O)N=c3sccn3C)c2)CC(C)O1 (stereo not drawn),inactive
20,Cc1ccc(C)c(NC(=O)CN(C)C(=O)c2cccc(S(=O)(=O)N3CCCC3)c2)c1,"inconclusive: 0.116 µM [activator, partial curve, poor fit]"
21,O=C(c1ccc(Cl)cc1)c1coc2ccc(O)cc12,"inconclusive: 6.51 µM [activator, partial curve]"
22,CCOC(=O)C1=C(C)Nc2ncnn2C1c1cccnc1 (stereo not drawn),inactive
23,Cc1cccc(N2CCN(C(=O)COc3ccc4c(c3)CCC4)CC2)c1C,"inconclusive: 32.6 µM [inhibitor, single point]"

# Pulled by compound from the list above:
row,Structure (SMILES),Potency
19,CC1CN(S(=O)(=O)c2cccc(C(=O)N=c3sccn3C)c2)CC(C)O1 (stereo not drawn),inactive
20,Cc1ccc(C)c(NC(=O)CN(C)C(=O)c2cccc(S(=O)(=O)N3CCCC3)c2)c1,"inconclusive: 0.116 µM [activator, partial curve, poor fit]"
9,COc1ccc(-c2nnn(CC(=O)N3CCN(c4ccc(F)cc4)CC3)n2)cc1,inactive

# Following part

row,Structure (SMILES),Potency
1,CCn1c(=O)cc(SCC(=O)Nc2cccc(SC)c2)c2ccccc21,"inconclusive: 4.11 µM [inhibitor, full curve, poor fit]"
2,Cc1ccc(C(=O)Nc2nccc(C)n2)cc1,"inconclusive: 16.4 µM [activator, single point]"
3,COc1cc(OC)cc(C(=O)N(CCCN2C(=O)c3cccc4cccc(c34)C2=O)c2cccc(OC)c2)c1,"inconclusive: 29.1 µM [inhibitor, single point]"
4,O=C(Nc1sc2c(c1C(=O)O)CCCCC2)c1ccccc1,"inconclusive: 6.51 µM [activator, single point]"
5,CCOC(=O)CSc1nc2ccc(C)cc2[nH]1,"inconclusive: 18.4 µM [activator, single point]"
6,Cc1cc(C(=O)N/N=C/C=C/c2ccccc2)n[nH]1,inactive
7,Cc1ccc(C)c(NC(=O)C(Sc2nc3ccccc3c(=O)n2CC(C)C)c2ccccc2)c1 (stereo not drawn),"inconclusive: 0.58 µM [inhibitor, full curve]"
8,Cc1cc(C)n(-c2ccc(C(=O)OCc3nnc(-c4ccccc4)o3)cc2)n1,"inconclusive: 16.4 µM [activator, partial curve, poor fit]"
9,CN(c1ccc(C(=O)NCCc2ccccc2)cc1)S(C)(=O)=O,"inconclusive: 2.59 µM [activator, full curve]"
10,O=C(c1ccc(Cl)cc1)c1cc([N+](=O)[O-])ccc1N1CCOCC1,inactive
11,COc1ccc(NC(=O)c2c(-c3c(Cl)cccc3Cl)noc2C)cn1,inactive
12,O=c1ccc(-c2nc3ccccc3n2Cc2ccccc2Cl)c[nH]1,"inconclusive: 20.6 µM [activator, single point]"
13,O=S(=O)(c1ccccc1)c1cnn(-c2ccccc2)c1-c1ccc(Cl)cc1,"inconclusive: 14.6 µM [inhibitor, partial curve, poor fit]"
14,O=c1nc(N/N=C/c2c[nH]c3ccccc23)cn[nH]1,"inconclusive: 8.2 µM [activator, partial curve]"
15,O=C(CCN1C(=O)/C(=C/c2ccccc2)SC1=S)N1CCCCCC1,"inconclusive: 29.1 µM [inhibitor, single point]"
16,CCOC(=O)Cn1ccc(NC(=O)c2ccc(F)cc2)n1,inactive
17,O=C(CSc1nnc(CNC(=O)C23CC4CC(CC(C4)C2)C3)n1-c1ccc(F)cc1)Nc1ccc(F)cc1,"inconclusive: 18.4 µM [inhibitor, partial curve]"
18,O=C(Nc1ccc(C(=O)N2CCN(c3ccc(Cl)cc3)CC2)cc1)C1=CSCCO1,inactive
19,COc1ccc(Nc2nc(-c3ccccc3)nc3ccccc23)c(OC)c1,"inconclusive: 14.6 µM [inhibitor, partial curve]"
20,Cc1nc2c(C(=O)NCc3cccs3)cnn2c(C)c1Cc1ccccc1,"inconclusive: 25.9 µM [inhibitor, single point]"
21,O=C1CCC(/C=C/c2ccccc2)=NN1,"inconclusive: 29.1 µM [activator, single point]"
22,Cc1ccc2c(c1)N(S(=O)(=O)c1ccc(CN3C(=O)c4cccnc4C3=O)cc1)CCO2,"inconclusive: 8.2 µM [activator, partial curve, poor fit]"
23,CC(C)c1ccc(C(O)Cc2nc3ccccc3n2C)cc1 (stereo not drawn),"inconclusive: 23.1 µM [activator, partial curve]"

row,Structure (SMILES),Potency
1,COc1ccc(-n2ncc(S(=O)(=O)c3ccccc3)c2-c2ccc(Cl)cc2)cc1,"inconclusive: 18.4 µM [inhibitor, single point]"
2,COC(=O)c1ccc(NC(=O)COc2ccc(N(C)S(=O)(=O)c3ccc(C)cc3)cc2)cc1,"inconclusive: 8.2 µM [inhibitor, partial curve]"
3,O=C(Nc1ccc2oc(=O)ccc2c1)c1cc2ccccc2o1,"inconclusive: 5.8 µM [activator, full curve, poor fit]"
4,CCOC(=O)C(C(=O)OCC)C1N=C(N)N=C2Oc3ccccc3N21 (stereo not drawn),"inconclusive: 18.4 µM [activator, single point]"
5,CC(C)CCCC(C)NC(=O)c1cc(S(=O)(=O)N2CCCCC2)ccc1N1CCOCC1 (stereo not drawn),active: 11.2 µM
6,Cc1ccc(-n2c(=S)[nH]c3c(oc4ccccc43)c2=O)cc1,"inconclusive: 6.51 µM [activator, partial curve]"
7,C=CCn1c(CNc2ccc(C)cc2)nnc1SCC(=O)N/N=C/c1ccc(O)cc1O,"inconclusive: 11.6 µM [inhibitor, partial curve, poor fit]"
8,CC(=O)c1ccc(S(=O)(=O)NCCCC(=O)N(C)Cc2ccc3c(c2)OCO3)cc1,inactive
9,CCOC(=O)c1c(C)[nH]c(C)c1C(=O)CN1C(=O)NC2(CCCCCC2)C1=O,"inconclusive: 29.1 µM [inhibitor, single point]"
10,Cc1ccc2c(CN(C)Cc3cccc(F)c3)cc(=O)oc2c1C,"inconclusive: 32.6 µM [activator, partial curve, poor fit]"
11,O=C(OCc1nc2ccsc2c(=O)[nH]1)c1ccco1,"inconclusive: 0.0183 µM [activator, full curve, poor fit]"
12,Cc1ccc(Cn2nnc3c(=O)[nH]c(C4CCN(C(=O)c5cccs5)CC4)nc32)cc1,active: 9.2 µM
13,O=C1CC(N2CCOCC2)C(=O)N1c1cccc(Cl)c1 (stereo not drawn),inactive
14,CC(=O)c1ccc(-c2ccc(C(=O)NC3CC(C)(C)NC(C)(C)C3)o2)cc1,"inconclusive: 5.8 µM [activator, single point]"
15,S=C(NC1CCCCC1)N1CCN(Cc2ccccc2Cl)CC1,"inconclusive: 16.4 µM [inhibitor, single point]"
16,CCOC(=O)N1CCC(N2Cc3cccc(C(=O)NCc4ccc(OC)cc4)c3C2=O)CC1,"inconclusive: 20.6 µM [inhibitor, single point]"
17,O=C1CC(c2ccccc2)CC(O)=C1C=Nc1ccccc1 (stereo not drawn),inactive
18,Cn1c(=NC(=O)COc2ccccc2)sc2cccc(F)c21,"inconclusive: 8.2 µM [activator, partial curve]"
19,Cc1ccc(C(=O)NC(=S)Nc2ccccc2C(F)(F)F)cc1,inactive
20,CC1SCC(NC(=O)c2ccc(Cl)cc2)CS1 (stereo not drawn),"inconclusive: 23.1 µM [activator, partial curve, poor fit]"
21,Cc1c(C(=O)OC2CCCC2C)[nH]c2c1C(=O)CCC2 (stereo not drawn),"inconclusive: 16.4 µM [activator, partial curve]"
22,CCCN(CC(=O)Nc1ccc(F)c(F)c1F)CC(=O)Nc1c(Cl)cccc1Cl,"inconclusive: 20.6 µM [inhibitor, single point]"
